Laboratory results reported in ChEMBL document CHEMBL3826926, “Kinetic and structural insights into the binding of histone deacetylase 1 and 2 (HDAC1, 2) inhibitors” (Bioorg Med Chem, 2016).

Chains of the proteins cited; added tags and fusions are not shown. Lines headed by an entry give the natural chain unless they say otherwise; changes in a name come on top.
UniProt O15379: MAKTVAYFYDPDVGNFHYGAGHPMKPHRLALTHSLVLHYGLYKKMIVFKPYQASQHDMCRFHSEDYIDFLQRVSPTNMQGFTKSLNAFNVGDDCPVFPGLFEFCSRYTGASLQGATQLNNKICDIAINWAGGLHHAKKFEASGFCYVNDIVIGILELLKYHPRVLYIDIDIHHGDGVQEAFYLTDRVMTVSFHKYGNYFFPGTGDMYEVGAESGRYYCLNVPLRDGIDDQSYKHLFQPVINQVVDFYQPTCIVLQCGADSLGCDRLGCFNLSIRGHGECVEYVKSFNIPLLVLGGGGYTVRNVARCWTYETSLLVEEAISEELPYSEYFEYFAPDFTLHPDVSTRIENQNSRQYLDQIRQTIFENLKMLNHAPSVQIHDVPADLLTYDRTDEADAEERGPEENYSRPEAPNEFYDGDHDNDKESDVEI
UniProt Q13547, whole entry: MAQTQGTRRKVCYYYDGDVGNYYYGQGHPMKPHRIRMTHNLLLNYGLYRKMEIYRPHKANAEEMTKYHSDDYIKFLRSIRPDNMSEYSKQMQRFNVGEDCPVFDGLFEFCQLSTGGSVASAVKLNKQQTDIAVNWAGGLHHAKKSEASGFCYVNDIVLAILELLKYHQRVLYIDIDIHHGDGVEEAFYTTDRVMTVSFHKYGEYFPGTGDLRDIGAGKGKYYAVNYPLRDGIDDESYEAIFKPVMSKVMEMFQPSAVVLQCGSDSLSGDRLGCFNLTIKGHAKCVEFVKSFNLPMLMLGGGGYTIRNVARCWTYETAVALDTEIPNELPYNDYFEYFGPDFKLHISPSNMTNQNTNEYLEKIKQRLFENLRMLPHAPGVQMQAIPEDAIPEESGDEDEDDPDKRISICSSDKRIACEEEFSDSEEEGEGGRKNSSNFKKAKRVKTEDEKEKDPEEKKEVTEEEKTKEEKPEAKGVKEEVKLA

Tests used:
Histone deacetylase 3 = Histone deacetylase 3 (Homo sapiens, UniProt O15379)
Histone deacetylase 1 = Histone deacetylase 1 (Homo sapiens, UniProt Q13547); settings: Sf9

T1/2 (Histone deacetylase 3): 14.2 min | T1/2 (Histone deacetylase 1): 1.52 min
SMILES: Nc1ccc(-c2ccc(Cl)cc2)cc1NC(=O)C1CCOCC1
